# In PubChem BioAssay AID504467 (National Center for Advancing Translational Sciences (NCATS), 2011):
# Out of some 330,000 compounds screened, about 7,700 (2.3%) were called active. Inconclusive means that the source gave no clear call. Such entries were picked first, then a sample of the others. Calls follow the shape of the dose curve; as a rule, active = well fitted inhibition curve with a large enough effect; inconclusive = small, poorly fitted or top-dose-only effect, or effect the other way; inactive = flat fitted curve, though single readings scatter. Potencies beside an inconclusive call are fits to weak or partial responses and may not hold up.
# Experiment: qHTS screen for small molecules that inhibit ELG1-dependent DNA repair in human embryonic kidney (HEK293T) cells expressing luciferase-tagged ELG1; also: nearly all actives have a fitted effect of over 55% in size
# Conditions: HEK293T ELG1-luciferase reporter, luminescence, 16 h, DNA damage induced by 5-fluorouridine; activity change, negative = inhibition: at 46.1 µM (top of the series)
# Procedure, shortened: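 HEK293T cells expressing luciferase-tagged ELG1 (2,000/well) received 5-Fluorouridine plus compound or DMSO for 16 hr at 37 °C. Luciferase was read by ONE-Glo luminescence after 30 min at room temperature.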
# % is scaled to controls: 0 for no effect and ±100 for the full control effect; potency is read from the fitted curve at half-maximal effect.
SMILES,"activity change, negative = inhibition",Potency
C=CCn1c(C(C)(C)C)nc2ccccc21,inactive: 0.226%,–
CCOC(=O)c1sc2ncnc(NCC(c3cccs3)N(C)C)c2c1C (stereo not given),inactive: -6.61%,–
Cc1cc(-c2csc(NC(=O)C3=COCCO3)n2)c(C)n1C,inactive: 16.2%,–
O=C(Nc1cc(S(=O)(=O)N2CCOCC2)ccc1OCC(F)(F)F)C1=COCCO1,–,"inconclusive: 23.1 µM [inhibitor, single point]"
CC(C)(O)c1[nH]c2cc(C(F)(F)F)ccc2c1C(C)(C)O,inactive: 11.7%,–
COc1ccc([N+](=O)[O-])cc1NCC(=O)c1ccc(C)cc1,–,"inconclusive: 13 µM [activator, partial curve]"
Cc1cc(C)c(OCC(=O)Nc2ccccc2N2CCCCC2)c(C)c1,inactive: 0.852%,–
Cc1cc([N+](=O)[O-])ccc1NC(=O)CN1C2CCC1CC(NC(=O)NC13CC4CC(CC(C4)C1)C3)C2 (stereo not given),–,"inconclusive: 9.2 µM [inhibitor, partial curve]"
N#Cc1nc(-c2ccc(OCc3ccccc3)cc2)oc1N1CCC(C(N)=O)CC1,–,"inconclusive: 13 µM [inhibitor, single point]"
Cc1[nH]c2ccc(C(=O)OC(C)C(=O)N(C)c3ccccc3)cc2c1C (stereo not given),–,"inconclusive: 32.6 µM [inhibitor, single point]"
Clc1ccc(-c2cc3ccccc3nc2N2CCCC2)cc1,inactive: 3.11%,–
CCOC(=O)/C(C#N)=C/c1c(N2CCN(Cc3ccc4c(c3)OCO4)CC2)nc2c(C)cccn2c1=O,inactive: 0%,–
Fc1ccc(CNc2nc(-c3cccnc3)nc3ccccc23)cc1,–,"inconclusive: 23.1 µM [inhibitor, single point]"
Cc1n[nH]c(C)c1S(=O)(=O)N1CCCC(C(=O)NC2CCCCC2)C1 (stereo not given),inactive: -7.09%,–
O=C(NS(=O)(=O)NC1CCCCC1)C1=C(N2CCCC2)COC1=O,–,"inconclusive: 16.4 µM [activator, partial curve, poor fit]"
CCn1c(SCC(=O)Nc2ccccc2Br)nnc1-c1cnccn1,–,"inconclusive: 23.1 µM [activator, partial curve, poor fit]"
O=C(Cc1ccccc1)N/N=C/c1ccc(Cl)cc1Cl,–,"inconclusive: 25.9 µM [activator, single point]"
Cc1nnc(SCc2ccc3c(c2)OCO3)s1,–,"inconclusive: 20.6 µM [activator, partial curve]"
C=CCOc1ccc(/C=C/C(C)=N\O)cc1,–,"inconclusive: 9.2 µM [activator, partial curve]"
CCOC(=O)c1ccc(-n2c(C)nc3c(cnn3-c3ccc(Cl)cc3)c2=O)cc1,–,"inconclusive: 3.66 µM [inhibitor, partial curve, poor fit]"
COc1ccc(/C=C/c2cc(-c3ccc(C)cc3)o[n+]2C)cc1,–,"inconclusive: 23.1 µM [inhibitor, partial curve]"
CC1=Nn2c(nnc2-c2ccccc2)SC1,inactive: 8.64%,–
Cc1ccc(-c2noc(/C=C/c3ccccc3)n2)cc1,–,"inconclusive: 20.6 µM [activator, single point]"
Cn1c(SCc2c(Cl)cccc2Cl)nnc1-c1cccs1,–,"inconclusive: 14.6 µM [activator, partial curve]"
CCOc1ccc2c(c1)OC(c1ccc(OC)cc1)(C(F)(F)F)NC2=O (stereo not given),–,"inconclusive: 29.1 µM [activator, single point]"

# Quoted from the listing.
# Value for CCOC(=O)c1ccc(-n2c(C)nc3c(cnn3-c3ccc(Cl)cc3)c2=O)cc1 under Potency: inconclusive: 3.66 µM [inhibitor, partial curve, poor fit]
# Value for Cc1nnc(SCc2ccc3c(c2)OCO3)s1 under Potency: inconclusive: 20.6 µM [activator, partial curve]
# Value for C=CCOc1ccc(/C=C/C(C)=N\O)cc1 under Potency: inconclusive: 9.2 µM [activator, partial curve]

# (next part)

SMILES,"activity change, negative = inhibition",Potency
CCc1c(C)nc2ncnn2c1Nc1ccc(C)cc1,inactive: -1.81%,–
O=C(NCCCc1nc2ccccc2[nH]1)c1ccc(F)cc1,inactive: 26.1%,–
COc1cccc(NC(=O)NCc2ccccc2F)c1,–,"inconclusive: 29.1 µM [activator, single point]"
Oc1ccc(Cl)cc1C1=NNC(c2ccc(Cl)cc2)C1 (stereo not given),–,"inconclusive: 16.4 µM [activator, partial curve, poor fit]"
CCOc1ccc(S(=O)(=O)N(CC(N)=O)c2ccc(C)cc2)cc1,inactive: 12.6%,–
Cc1occc1-c1nnc(SCC(=O)N2CCCc3ccccc32)n1Cc1ccco1,–,"inconclusive: 20.6 µM [inhibitor, single point]"
CC(=O)Nc1ccc(NC(=O)C(C)O/N=C/c2cccc([N+](=O)[O-])c2)cc1 (stereo not given),–,"inconclusive: 16.4 µM [inhibitor, partial curve, poor fit]"
O=C(N1CCCCCC1)n1c(Cc2ccccc2)nc2ccccc21,–,"inconclusive: 18.4 µM [inhibitor, single point]"
O=C(Nc1nc2ccc(F)cc2s1)Oc1ccccc1,–,"inconclusive: 29.1 µM [activator, single point]"
CC(NC(=S)Nc1ccc(OC(F)F)cc1)c1ccc(F)cc1 (stereo not given),–,"inconclusive: 23.1 µM [inhibitor, single point]"
Cc1nnc(NC(=O)c2ccc3c(c2)OCO3)s1,–,"inconclusive: 18.3 µM [activator, partial curve]"
CCO[C@H]1OC(C(=O)N2CCCCCCC2)=C[C@@H](c2ccc(C(F)(F)F)cc2)[C@@H]1CCCO,–,"inconclusive: 23.1 µM [inhibitor, single point]"
COc1ccc(Br)cc1CNC(=O)CCN1C(=O)COc2ccccc21,–,"inconclusive: 14.6 µM [inhibitor, partial curve]"
O=C(NC(NC(=S)Nc1c(Cl)cc(Cl)cc1Cl)C(Cl)(Cl)Cl)OCc1ccccc1 (stereo not given),inactive: -19.3%,–
CCOC(=O)C1=C(C)N=C2SCCC(=O)N2C1c1ccc(C(=O)OC)cc1 (stereo not given),inactive: 15.9%,–
Oc1ccccc1C1=Nc2nc3ccccc3n2C(c2ccccc2)C1 (stereo not given),–,"inconclusive: 3.66 µM [activator, partial curve]"
N=C(N)N1CCN(Cc2ccccc2)CC1,inactive: 11%,–
CCOc1ccccc1N1CCN(C(=O)c2cccs2)CC1,inactive: 0.267%,–
CC(C)C(=O)N1N=C(c2ccc(NS(C)(=O)=O)cc2)CC1c1cccs1 (stereo not given),inactive: -19.2%,–
CCOC(=O)c1ccc(NC(=O)CN2CCN(Cc3ccccc3)CC2)cc1,–,"inconclusive: 16.4 µM [inhibitor, partial curve]"
O=C(CN1CCN(c2ccccn2)CC1)Nc1nc2ccccc2s1,inactive: -2.42%,–
O=C(Nc1nc2ccccc2s1)c1ccc(F)cc1,–,"inconclusive: 1.03 µM [activator, full curve]"
COc1ccc(-c2cc(-c3nnc(COC(=O)C4CC4C)o3)c3ccccc3n2)cc1OC (stereo not given),–,active: 9.2 µM
O=C(Cc1ccccc1)Nc1ccc(SC(F)F)cc1,–,"inconclusive: 13 µM [activator, partial curve]"
O=C(CSc1nnc(-c2ccc(F)cc2)o1)N1CCCCC1,–,"inconclusive: 18.3 µM [activator, partial curve]"

SMILES,"activity change, negative = inhibition",Potency
Cc1cccc(-c2noc(-c3ccc(Cl)cc3[N+](=O)[O-])n2)c1,–,"inconclusive: 8.2 µM [activator, partial curve]"
N=c1c2c(-c3ccccc3)c(-c3ccccc3)n(Cc3ccco3)c2ncn1CCCn1ccnc1,inactive: -8.91%,–
Cc1ccc(NC(=O)c2cccc3c2C(=O)N(C2CCCCC2)C3)c(C)c1,inactive: 11.3%,–
C=CCNc1nnc(SC2CC(=O)N(c3ccc(OCCC)cc3)C2=O)s1 (stereo not given),inactive: -0.0417%,–
COC(=O)CS(=O)(=O)c1ccsc1C(=O)Nc1ccc(F)c(F)c1,inactive: -6.83%,–
COc1ccc(NC(=O)Nc2ccccc2F)cc1Cl,–,"inconclusive: 4.11 µM [activator, full curve]"
Oc1ccc(/C=N/Nc2ccc(C(F)(F)F)cn2)cc1,–,"inconclusive: 6.51 µM [activator, partial curve]"
CCOC(=O)C1(Cc2ccccc2C)CCCN(C(=O)c2ccccn2)C1 (stereo not given),–,"inconclusive: 23.1 µM [activator, single point]"
Cc1[nH]c2ccccc2c1C=NNC(=O)c1cc(-c2cccnc2)nc2ccccc12,–,active: 16.4 µM
CCOc1ccccc1NC(=S)NNS(=O)(=O)c1c(C)cc(C)cc1C,inactive: 1.76%,–
Cc1nc(SCC(=O)N2CCc3ccccc3C2)c2c(C)c(C)sc2n1,–,"inconclusive: 16.4 µM [inhibitor, single point]"
CCn1c(NC(=S)Nc2ccccc2)nc2ccccc21,–,"inconclusive: 9.2 µM [activator, partial curve]"
CC(=O)Nc1ccc2nc(-c3cccn3C)[nH]c2c1,–,"inconclusive: 31.6 µM [activator, single point]"
Nc1cc(=O)nc(SCC(=O)N2CCN(c3ccccc3)CC2)n1-c1ccc(F)cc1,inactive: 0.93%,–
Cn1c(N)c(C(=O)CSc2ncn[nH]2)c(=O)n(C)c1=O,inactive: 13.5%,–
CC(=O)c1ccc2noc(-c3cccc(F)c3)c2c1,–,"inconclusive: 16.4 µM [inhibitor, single point]"
Brc1ccc2c(c1)OCCOCCOCCOCCOCCOCCO2,inactive: -28.5%,–
Cc1cccc(N2CCN(C(=O)COc3ccc4c(C)cc(=O)oc4c3C)CC2)c1C,–,active: 25.9 µM
COCCCNC(=O)c1ccccc1N(Cc1ccccc1)S(=O)(=O)c1ccccc1,inactive: -6.32%,–
CCCC(C)NC(=O)COc1ccc(S(=O)(=O)c2ccc(OCC(=O)NC(C)CCC)cc2)cc1 (stereo not given),–,"inconclusive: 29.1 µM [inhibitor, single point]"
CN(C)C(CNC(=O)c1ccc(C2SCCS2)cc1)c1ccccc1 (stereo not given),–,"inconclusive: 20.6 µM [activator, single point]"
CCN(CC)C(=O)c1ccc(NS(=O)(=O)c2ccc(/C=C/C(=O)O)cc2)cc1,inactive: 7.64%,–
CC(C)n1nnnc1SCC(=O)NC1CCCC1,–,"inconclusive: 20.6 µM [activator, partial curve, poor fit]"
Cn1c(Cl)c(/C=N/OC(=O)c2ccccc2Cl)c2ccccc21,–,"inconclusive: 32.6 µM [inhibitor, single point]"
Cc1cccc(N2CCN(C(=O)c3ccccc3SCC(=O)N3CCCC3)CC2)c1C,–,"inconclusive: 23.1 µM [inhibitor, single point]"
